Reference: paper PMC4161973
Results are given in words; binding and its absence hold for the method and conditions named. For part of these data: Tags and fused reporters may be left off the sequences shown.

Chains of the proteins cited; added tags and fusions are not shown.
UniProt Q06142: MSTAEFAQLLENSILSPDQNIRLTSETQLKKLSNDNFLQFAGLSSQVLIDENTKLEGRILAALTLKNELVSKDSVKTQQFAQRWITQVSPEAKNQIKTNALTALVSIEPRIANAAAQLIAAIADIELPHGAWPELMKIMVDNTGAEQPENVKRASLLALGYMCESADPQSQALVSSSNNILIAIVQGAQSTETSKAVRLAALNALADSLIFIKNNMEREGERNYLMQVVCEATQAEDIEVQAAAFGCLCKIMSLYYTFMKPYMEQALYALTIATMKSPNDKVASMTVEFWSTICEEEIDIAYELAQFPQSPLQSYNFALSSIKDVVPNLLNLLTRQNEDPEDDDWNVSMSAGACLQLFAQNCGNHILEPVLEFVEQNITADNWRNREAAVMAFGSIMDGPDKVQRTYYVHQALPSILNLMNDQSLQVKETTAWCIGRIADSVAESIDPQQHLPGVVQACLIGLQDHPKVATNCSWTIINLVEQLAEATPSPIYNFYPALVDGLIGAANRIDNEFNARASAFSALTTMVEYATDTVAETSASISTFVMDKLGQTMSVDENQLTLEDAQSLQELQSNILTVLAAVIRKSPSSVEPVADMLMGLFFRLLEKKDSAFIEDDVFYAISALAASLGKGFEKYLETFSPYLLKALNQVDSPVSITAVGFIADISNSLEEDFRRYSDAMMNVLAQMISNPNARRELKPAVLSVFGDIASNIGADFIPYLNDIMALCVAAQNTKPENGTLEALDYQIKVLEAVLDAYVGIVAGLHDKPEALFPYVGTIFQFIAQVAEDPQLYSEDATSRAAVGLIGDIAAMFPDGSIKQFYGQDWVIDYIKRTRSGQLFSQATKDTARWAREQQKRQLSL

How the values were obtained:
Assay in all cases: pull-down; GST-importins immobilised on Glutathione Sepharose, incubated with purified 3.4 µM Tsr2 or 4 µM Tsr2:eS26 in PBSKMT with competing E. coli lysates for 1 hr at 4°C; Coomassie Blue staining or Western; both purified
[1] = target: GST-tagged Kap95 (S. cerevisiae) (UniProt Q06142)
[2] = target: T1, GST-tagged Sxm1 (S. cerevisiae) (UniProt Q04175)
T1 sequence: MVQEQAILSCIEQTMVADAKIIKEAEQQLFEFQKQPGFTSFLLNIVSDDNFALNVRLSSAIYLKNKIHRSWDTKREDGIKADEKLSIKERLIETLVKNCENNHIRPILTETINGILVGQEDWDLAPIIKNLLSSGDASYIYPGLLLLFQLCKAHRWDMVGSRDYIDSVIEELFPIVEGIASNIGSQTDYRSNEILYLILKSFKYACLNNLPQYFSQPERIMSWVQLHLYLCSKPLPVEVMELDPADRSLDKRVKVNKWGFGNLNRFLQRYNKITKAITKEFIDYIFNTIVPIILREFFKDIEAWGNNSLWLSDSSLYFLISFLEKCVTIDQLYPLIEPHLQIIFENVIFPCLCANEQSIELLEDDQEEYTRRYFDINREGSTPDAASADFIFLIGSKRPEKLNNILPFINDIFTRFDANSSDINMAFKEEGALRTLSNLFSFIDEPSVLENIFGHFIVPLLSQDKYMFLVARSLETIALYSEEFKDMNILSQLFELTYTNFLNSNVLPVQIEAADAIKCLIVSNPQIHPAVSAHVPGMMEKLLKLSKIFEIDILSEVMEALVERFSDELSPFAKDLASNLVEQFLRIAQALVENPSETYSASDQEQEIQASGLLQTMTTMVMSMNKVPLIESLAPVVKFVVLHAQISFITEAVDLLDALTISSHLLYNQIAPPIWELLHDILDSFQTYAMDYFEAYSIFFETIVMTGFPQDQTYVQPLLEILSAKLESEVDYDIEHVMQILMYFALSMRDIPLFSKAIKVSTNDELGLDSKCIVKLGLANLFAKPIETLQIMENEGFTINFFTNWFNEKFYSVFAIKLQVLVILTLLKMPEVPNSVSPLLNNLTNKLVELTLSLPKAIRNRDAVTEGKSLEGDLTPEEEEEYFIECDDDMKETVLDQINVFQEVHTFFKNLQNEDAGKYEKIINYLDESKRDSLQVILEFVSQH

[3] = target: T2, GST-Kap104 (S. cerevisiae) (UniProt P38217)
T2 sequence: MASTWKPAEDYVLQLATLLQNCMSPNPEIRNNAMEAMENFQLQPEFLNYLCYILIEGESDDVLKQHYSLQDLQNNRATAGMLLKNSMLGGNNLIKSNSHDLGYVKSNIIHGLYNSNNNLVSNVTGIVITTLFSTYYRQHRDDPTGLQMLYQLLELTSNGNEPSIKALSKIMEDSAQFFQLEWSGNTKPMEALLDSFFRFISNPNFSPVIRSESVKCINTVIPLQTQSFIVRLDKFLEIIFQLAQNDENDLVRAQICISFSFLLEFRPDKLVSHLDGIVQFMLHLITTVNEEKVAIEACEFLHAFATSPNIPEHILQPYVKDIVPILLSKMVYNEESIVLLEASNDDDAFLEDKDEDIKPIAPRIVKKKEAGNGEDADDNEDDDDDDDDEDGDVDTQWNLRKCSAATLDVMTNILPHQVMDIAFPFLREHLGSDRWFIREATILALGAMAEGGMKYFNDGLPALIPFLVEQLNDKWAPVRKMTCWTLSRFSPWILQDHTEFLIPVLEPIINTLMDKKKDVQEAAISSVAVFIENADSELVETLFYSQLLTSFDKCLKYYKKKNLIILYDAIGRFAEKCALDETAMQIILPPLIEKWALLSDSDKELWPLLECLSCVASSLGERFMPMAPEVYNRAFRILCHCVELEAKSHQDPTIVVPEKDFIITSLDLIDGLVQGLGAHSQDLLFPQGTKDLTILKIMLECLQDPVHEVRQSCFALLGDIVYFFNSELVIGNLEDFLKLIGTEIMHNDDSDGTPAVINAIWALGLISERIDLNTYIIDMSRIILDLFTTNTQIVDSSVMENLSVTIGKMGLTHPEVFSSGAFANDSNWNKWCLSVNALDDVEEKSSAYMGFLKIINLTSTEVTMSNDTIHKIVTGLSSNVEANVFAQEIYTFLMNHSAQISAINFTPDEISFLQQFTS

binding [1]: no binding (tested: 3.4 µM Tsr2)
binding [2]: no binding (tested: 3.4 µM Tsr2)
binding [3]: no binding (tested: 3.4 µM Tsr2)
B1: Tsr2, purified recombinant (protein, UniProt Q06672 1-205)
chain: MSTQYIDETAFVQAEQGKTNLMFSDEKQQARFELGVSMVIYKWDALDVAVENSWGGPDSAEKRDWITGIVVDLFKNEKVVDAALIEETLLYAMIDEFETNVEDDSALPIAVEVINIYNDCFNLNYNKVEKLYLEWQEKQRTKKSKRVVHIEGDDDEDDEDVEDYDDEDEDEEMDEVVPDLVSSKPEPIVDEDGFELVQPKGRRKH
